Values quoted from earlier work in patent US20250134903A1, “COMPOSITIONS AND METHODS FOR TREATING PAIN” (priority 2023, published 2025).
For part of these data: At least one compound was matched to its structure with a doubt left. Some entries share one result that the patent states for a list of compounds. Some ranges recur; such a range may be that of the whole group of compounds.

Assays:
refractory TN = conditions: 48 patients; cited from earlier work
muscarinic receptors = conditions: range stated for the listed H1-receptor antagonists together; read-out: affinity for muscarinic receptors (Ki); cited from earlier work

Compound: O=c1[nH]c2ccccc2n1C1CCN(CCCC(c2ccc(F)cc2)c2ccc(F)cc2)CC1 [Pimozide]
- efficacy in refractory TN (refractory TN): found effective

Compound: CN1CCC(OC(c2ccccc2)c2ccccc2)CC1 [diphenylpyraline]
- Ki (muscarinic receptors): 5 to 38 nM

Compound: CC(CN(C)C)CN1c2ccccc2Sc2ccccc21 (stereo not drawn) [Trimeprazine]
- Ki (muscarinic receptors): 5 to 38 nM
